Measured values taken from PMC2965115.
Results are given in words; binding and its absence hold for the method and conditions named. Binding seen in cells or lysates may run through a third protein.

Target: LIN-40::GFP (C. elegans)
Assay: co-IP; approximatively 1 mg of protein extract from mixed-stage worms with 1 µg of antibodies per reaction; anti-AFP mAb 3E6 for GFP-tagged proteins; immunoprecipitates analysed by Western blot

binding: no binding
B1: MEP-1 (protein, UniProt Q21502 1-870)
chain: MVTADETVLATTTNTTSMSVEPTDPRSAGESSSDSEPDTIEQLKAEQREVMADAANGSEVNGNQENGKEEAASADVEVIEIDDTEESTDPSPDGSDENGDAASTSVPIEEEARKKDEGASEVTVASSEIEQDDDGDVMEITEEPNGKSEDTANGTVTEEVLDEEEPEPSVNGTTEIATEKEPEDSSMPVEQNGKGVKRPVECIELDDDDDDEIQEISTPAPAKKAKIDDVKATSVPEEDNNEQAQKRLLDKLEEYVKEQKDQPSSKSRKVLDTLLGAINAQVQKEPLSVRKLILDKVLVLPNTISFPPSQVCDLLIEHDPEMPLTKVINRMFGEERPKLSDSEKRERAQLKQHNPVPNMTKLLVDIGQDLVQEATYCDIVHAKNLPEVPKNLETYKQVAAQLKPVWETLKRKNEPYKLKMHRCDVCGFQTESKLVMSTHKENLHFTGSKFQCTMCKETDTSEQRMKDHYFETHLVIAKSEEKESKYPCAICEEDFNFKGVREQHYKQCKKDYIRIRNIMMPKQDDHLYINRWLWERPQLDPSILQQQQQAALQQAQQKKQQQLLHQQQAAQAAAAAQLLRKQQLQQQQQQQQARLREQQQAAQFRQVAQLLQQQSAQAQRAQQNQGNVNHNTLIAAMQASLRRGGQQGNSLAVSQLLQKQMAALKSQQGAQQLQAAVNSMRSQNSQKTPTHRSSKLVTTPSHATVGSSSAPTFVCEICDASVQEKEKYLQHLQTTHKQMVGKVLQDMSQGAPLACSRCRDRFWTYEGLERHLVMSHGLVTADLLLKAQKKEDGGRCKTCGKNYAFNMLQHLVADHQVKLCSAEIMYSCDVCAFKCSSYQTLEAHLTSNHPKGDKKTSTPAKKDDCITLDD
